Results as given in PubChem BioAssay AID624298 (National Center for Advancing Translational Sciences (NCATS), 2012).
The shares of active, inactive and inconclusive entries below differ from those in the screen. Potencies of inconclusive entries are doubtful fits and often do not repeat. Active and inactive are the calls of the source. The call rests on the fitted dose curve; in most records, active means well fitted activation curve with a large enough effect; inconclusive means small, poorly fitted or top-dose-only effect; inactive means no such curve, though single readings can be large or run the other way.

Experiment: Activators of T cell receptors: Hit Validation;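 further: cytokine measured is secreted IL-2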
Summary of the method: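 Readout is IL-2 secretion by HTRF, measured after 48 hr in which primary human leukocytes received compound together with a-CD3 beads as the only TCR stimulus.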
Potency means the concentration at half of the fitted maximal effect.

Row | SMILES | Potency
1 | CCOC(=O)N1CCc2c(sc3c2c(=O)n(-c2ccc(CC)cc2)c(=O)n3CC(=O)NCC2CCCO2)C1 (stereo unspecified) | inconclusive: 4.45 µM [activator, full curve]
2 | CN(C)c1ccc(/C=C2/NC(=O)NC2=O)cc1 | inconclusive: 17.7 µM [activator, partial curve]
3 | Cc1cc(NC(=O)CN2C(=O)NC(CC(C)C)C2=O)ccc1Br (stereo unspecified) | inactive
4 | NC(=O)c1ccc(NC(=O)COC(=O)/C=C/c2cn(-c3ccccc3)nc2-c2cccnc2)cc1 | inconclusive: 19.9 µM [activator, partial curve]
5 | O=C(O)COc1ccc2nsnc2c1Cl | inconclusive: 5.6 µM [activator, full curve]
6 | CCOC(=O)C1=C(O)/C(=C/c2ccc(OCC(=O)O)c(OC)c2)SC1=Nc1ccc(OCC)cc1 | inconclusive: 14.1 µM [activator, partial curve]
7 | COCCOC(=O)C1=C(C)NC(=S)NC1c1ccc(OCC(=O)N2CC(C)OC(C)C2)c(OC)c1 (stereo unspecified) | inconclusive: 7.91 µM [activator, partial curve, poor fit]
8 | CCC(=O)N1CCN(c2ccc(NC(=O)c3ccc([N+](=O)[O-])o3)cc2)CC1 | inactive
9 | COc1ccc(-c2sc3cc4c(cc3c2-c2ccc3c(c2)OCCO3)OCO4)cc1 | inconclusive: 1.41 µM [activator, full curve]
10 | Nn1c(SCc2ccccc2F)nnc1-c1ccccn1 | inactive
11 | O=C1/C(=C\c2ccc(Br)o2)Cc2ccccc21 | inconclusive: 14.1 µM [activator, partial curve]
12 | Cc1nn(-c2ccccc2)c(Cl)c1C(=O)NNC(=O)c1ccncc1 | inconclusive: 19.9 µM [activator, partial curve, poor fit]
13 | CCOc1ccc(-c2nnc(-c3snc(-c4ccc(F)cc4)c3N=CN(C)C)o2)cc1 | inactive
14 | O=C(O)c1ccccc1-c1c2cc(I)c(=O)c(I)c-2oc2c(I)c(O)c(I)cc12 | active: 0.996 µM
15 | CC(=O)c1cccc(NC(=O)C(C)OC(=O)c2cccc(S(=O)(=O)N3CCN(C)CC3)c2)c1 (stereo unspecified) | inactive
16 | S=C(Nc1ccc2nsnc2c1)N1CCCCC1 | inconclusive: 11.2 µM [activator, partial curve]
17 | CC(c1ccccc1)N(C)C(=O)CN1CCN(S(=O)(=O)c2ccc3c(c2)OCCCO3)CC1 (stereo unspecified) | inconclusive: 9.96 µM [activator, full curve]
18 | COC(=O)c1sc(-c2cccs2)cc1NC(=O)/C=C/C(=O)O | inconclusive: 5.6 µM [activator, full curve]
19 | Cc1ccc(Cl)cc1NS(=O)(=O)c1c(C)[nH]c(=O)[nH]c1=O | inconclusive: 25 µM [activator, partial curve, poor fit]
20 | CC(C)c1nnc(SCC(=O)N2CCOCC2)n1C | inactive
21 | C#CCn1c(=NC(=O)c2ccc(Br)s2)sc2cc(NC(C)=O)ccc21 | inconclusive: 9.96 µM [activator, full curve]
22 | CCC(=C/c1sc2ccc3ccccc3c2[n+]1C)/C=C1\Sc2ccc3ccccc3c2N1C | active: 9.96 µM
23 | S=C(Nc1ccc2nsnc2c1)NC1CCCCC1 | inconclusive: 15.8 µM [activator, partial curve]
24 | O=C(COC(=O)C1CCN(c2ccc(C(F)(F)F)cn2)CC1)NCc1ccccc1 | inactive
25 | CN(CC(=O)NCC(=O)Nc1ccc(F)cc1)C1CCS(=O)(=O)C1 (stereo unspecified) | inactive
26 | CCOC(=O)C1=C(O)/C(=C/c2ccc(OCC(=O)O)c(OC)c2)SC1=Nc1ccc(OC)cc1 | inconclusive: 4.99 µM [activator, partial curve]

Single entries from the entries so far:
Potency with COC(=O)c1sc(-c2cccs2)cc1NC(=O)/C=C/C(=O)O is entered as inconclusive: 5.6 µM [activator, full curve]
Potency with CC(C)c1nnc(SCC(=O)N2CCOCC2)n1C is entered as inactive
